Laboratory results: PubChem BioAssay AID504793 (Drosophila RNAi Screening Center, 2011)

Aim: 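Genes required for cells to halt at G2/M after double-strand DNA breaks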 (primary screen)
Cell system: Drosophila S2R+ cells
Knock-down reagent: long dsRNA against Drosophila genes, about 0.25 µg dsRNA per well
Duration: 4 days of dsRNA, then 4 hours of drug before read-out
Conditions: doxorubicin 0.5 µM for 4 hours to cause double-strand breaks, in cells also given a low, harmless dose of dsRNA against nbs to sensitise the assay
Read-out: 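Mitotic index as the number of phospho-histone H3-positive cells in each well following doxorubicin, given as raw counts without normalisation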
Reading the numbers: mitotic cells: higher = more cells in mitosis, weaker G2 arrest
Active means: 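Genes are called active only when high mitotic counts were reproduced with independent dsRNAs and mitosis was checked for delay without damage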
Calls: active = confirmed in follow-up tests; inactive = not confirmed
In all, the deposit lists about 23,000 reagents; this is an unselected part of those that have a named target and a result. In the full data, 62 (0.27%) got an active call. 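Calls come from follow-up tests whose scores are not deposited, so confirmed genes may have low counts here; counts are not normalised per plate.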 The raw values are shown without normalisation.

target	dsRNA	mitotic cells, replicate 1	mitotic cells, replicate 2	outcome
CG32409 (GeneID 318016)	DRSC08780	13		inactive
CG32409 (GeneID 318016)	DRSC25913	1		inactive
CG9459 (GeneID 41213)	DRSC16496	6		inactive
Cpr97Ea (GeneID 43258)	DRSC15974	11		inactive
Cpr97Ea (GeneID 43258)	DRSC26548	7		inactive
Hug (GeneID 41547)	DRSC16969	9		inactive
Hug (GeneID 41547)	DRSC29749	7		inactive
fray (GeneID 44233)	DRSC16950	7		inactive
CG7789 (GeneID 43516)	DRSC16312	14		inactive
CG7191 (GeneID 34058)	DRSC03022	4		inactive
CG7191 (GeneID 34058)	DRSC26094	5		inactive
Etf-QO (GeneID 36031)	DRSC06111	4		inactive
Osi22 (GeneID 41632)	DRSC16442	8		inactive
Osi22 (GeneID 41632)	DRSC27176	5		inactive
sna (GeneID 34908)	DRSC03613	5		inactive
Muc30E (GeneID 2768931)	DRSC01101	8	11	inactive
Muc30E (GeneID 2768931)	DRSC28881	5		inactive
CecA1 (GeneID 43596)	DRSC16603	13		inactive
CG16854 (GeneID 34539)	DRSC02536	2		inactive
Tcs5 (GeneID 38600)	DRSC09774	6		inactive
CG9294 (GeneID 37491)	DRSC04537	4		inactive
Sys1 (GeneID 41023)	DRSC14372	7		inactive
lncRNA:CR32385 (GeneID 3772463)	DRSC22966	13		inactive
mTor (GeneID 47396)	DRSC02811	11		inactive
mael (GeneID 40489)	DRSC11894	6		inactive
CRAT (GeneID 40787)	DRSC12523	3		inactive
CRAT (GeneID 40787)	DRSC29377	1		inactive
CG18048 (GeneID 40782)	DRSC12573	2		inactive
CG18048 (GeneID 40782)	DRSC29053	10		inactive
Pbgs (GeneID 39402)	DRSC09718	5		inactive
CG4372 (GeneID 37490)	DRSC04466	5		inactive
elB (GeneID 34844)	DRSC01379	2		inactive
elB (GeneID 34844)	DRSC25039	8		inactive
CG42324 (GeneID 38430)	DRSC08431	4		inactive
CG42324 (GeneID 38430)	DRSC08432	6		inactive
CG42324 (GeneID 38430)	DRSC26516	5		inactive
dx (GeneID 31589)	DRSC18767	8		inactive
dx (GeneID 31589)	DRSC24880	8		inactive
mwh (GeneID 38131)	DRSC08382	8		inactive
mwh (GeneID 38131)	DRSC27439	7		inactive
CG12795 (GeneID 33561)	DRSC00354	3		inactive
cnc (GeneID 42743)	DRSC14676	10		inactive
cnc (GeneID 42743)	DRSC15289	7		inactive
cnc (GeneID 42743)	DRSC15600	10		inactive
cnc (GeneID 42743)	DRSC15601	9		inactive
sti (GeneID 39429)	DRSC09739	3		inactive
sti (GeneID 39429)	DRSC09740	5		inactive
FucTA (GeneID 39653)	DRSC10733	5		inactive
CG18273 (GeneID 30991)	DRSC18150	11		inactive
CG18273 (GeneID 30991)	DRSC18505	8		inactive
CG9215 (GeneID 32494)	DRSC20171	13		inactive
ninaA (GeneID 33271)	DRSC00830	2		inactive
CG11345 (GeneID 38548)	DRSC08176	7		inactive
CG11345 (GeneID 38548)	DRSC28509	13		inactive
fest (GeneID 37220)	DRSC07349	7		inactive
fest (GeneID 37220)	DRSC24249	3		inactive
CG10927 (GeneID 37135)	DRSC06014	4		inactive
CG10927 (GeneID 37135)	DRSC29800	9		inactive
CG9154 (GeneID 33858)	DRSC03150	5		inactive
CG33310 (GeneID 2768910)	DRSC01897	5		inactive
CG33310 (GeneID 2768910)	DRSC24914	8		inactive
CG15019 (GeneID 38542)	DRSC08473	6		inactive
CG43901 (GeneID 32024)	DRSC19397	11		inactive
CG43901 (GeneID 32024)	DRSC27031	5		inactive
Scr (GeneID 40833)	DRSC23141	15		inactive
Scr (GeneID 40833)	DRSC29201	3		inactive
Marf (GeneID 31581)	DRSC18329	2		inactive
Marf (GeneID 31581)	DRSC28101	7		inactive
COX7AL (GeneID 40995)	DRSC15313	2		inactive
COX7AL (GeneID 40995)	DRSC25198	7		inactive
Sps1 (GeneID 36587)	DRSC07549	9		inactive
CG13708 (GeneID 38582)	DRSC08317	8		inactive
CG3587 (GeneID 31160)	DRSC18541	10		inactive
CG3587 (GeneID 31160)	DRSC21966	13		inactive
CG43658 (GeneID 32729)	DRSC20111	8		inactive
CG43658 (GeneID 32729)	DRSC25445	5		inactive

Only “mitotic cells, replicate 1” (9 entries from above):
Etf-QO (GeneID 36031) [DRSC06111]: 4
Osi22 (GeneID 41632) [DRSC16442]: 8
Osi22 (GeneID 41632) [DRSC27176]: 5
sna (GeneID 34908) [DRSC03613]: 5
Muc30E (GeneID 2768931) [DRSC01101]: 8
Muc30E (GeneID 2768931) [DRSC28881]: 5
CecA1 (GeneID 43596) [DRSC16603]: 13
CG16854 (GeneID 34539) [DRSC02536]: 2
Tcs5 (GeneID 38600) [DRSC09774]: 6
